Experiment: Levels of 13-HODE-G in mouse gastrointestinal tract by LC-MS/MS
Conditions: mice; ± SEM

CCCCC[C@H](O)/C=C/C=C\CCCCCCCC(=O)OCC(O)CO (stereo partly shown) [13-HODE-G, 13-hydroxy-octodecadienoyl-glycerol]
Level of 13-HODE-G, Caecum: 997 ± 317 fmol/mg of tissue | Level of 13-HODE-G, Duodenum: 9746 ± 4360 fmol/mg of tissue | Level of 13-HODE-G, Ileum: 1165 ± 185 fmol/mg of tissue | Level of 13-HODE-G, Jejunum: 4810 ± 2692 fmol/mg of tissue

— publication PMC8470279, “Biosynthesis of the Novel Endogenous 15-Lipoxygenase Metabolites N-13-Hydroxy-octodecadienoyl-ethanolamine and 13-Hydroxy-octodecadienoyl-glycerol by Human Neutrophils and Eosinophils” (Cells, 2021)
